Data on 54 compounds can be found in PubChem BioAssay AID1487 (National Center for Advancing Translational Sciences (NCATS), 2009).

This experiment is described as follows: qHTS Assay for Modulators of Lamin A Splicing. Particulars: HeLa LMNA splicing GFP/RFP minigene ratio, 48 h. Summed up: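 Read-out is the ratio of GFP to DsRed2 object intensity, acquired by 488 nm laser-scanning cytometry on HeLa lamin A-EGFP minigene reporter cells. Compound incubation 48 hrs at 37 °C in Opti-MEM with 2% FBS; DMSO 0.5% final.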
[1] abbreviates: measured here: RFP viability control channel.
Where [2] appears, read: measured here: GFP splicing reporter channel.

Each structure is given as a SMILES string. Some of the results follow. Shown are side measurements of this screen, not its main read-out; they come without a call. The list favours compounds with an active or inconclusive main result. Words in brackets tell the shape of the fitted curve; partial curves, single points and poor fits give uncertain potencies.

Take `Cc1cc(S(=O)(=O)N2CCCC2)ccc1OCC(=O)NC1CCCC1`: the AC50 (usually the concentration giving half of the maximal activity seen) under setting [1] was 35.5 µM [falling, partial curve, poor fit]. For `O=C(NC(NC1CCS(=O)(=O)C1)C(Cl)(Cl)Cl)c1ccc(Br)cc1` (centres undefined), the AC50 under setting [2] was 12.6 µM [falling, single point].

For the compound `O/N=C1\CCCC\C1=C/c1ccccc1`, the AC50 reads like this: under setting [2], 0.00447 µM [falling, full curve, poor fit]; under setting [1], 0.00447 µM [falling, full curve, poor fit].

`O=c1c(CCc2ccccc2)nc2cncnc2n1Cc1ccccc1`: under setting [2], the AC50 was 0.1 µM [falling, full curve, poor fit].

With `CCCC(C)C(=O)Nc1nc(C)c(-c2csc(Nc3cc(Cl)ccc3C)n2)s1` (centres undefined), the concentration at half-maximal activity (AC50) is, setting by setting: under setting [2], 4.47 µM [falling, partial curve, poor fit]; under setting [1], 5.01 µM [falling, partial curve, poor fit]. In the case of `CCOc1ccc(C2c3[nH]c4ccccc4c3CCN2C(=O)Cc2cccc(OCC)c2OCC)cc1` (centres undefined), the AC50 under setting [2] is 1.12 µM [falling, full curve, poor fit]. With `Cc1ccnc(NC(=O)c2ccc(Cl)c([N+](=O)[O-])c2)c1`, the AC50 under setting [1] was 0.141 µM [falling, full curve, poor fit]. Same read-out and setting: in the case of `CCOc1ccc(S(=O)(=O)N2CCN(C(=O)c3cc4c(s3)CCCC4)CC2)cc1` it was 20 µM [rising, partial curve, poor fit]; in that of `Cc1cc(C)c2c(c1)-c1c(ssc1=S)C(C)(C)N2C(=O)CN1C(=O)c2ccccc2C1=O`, 12.6 µM [rising, single point]. Still for that read-out and setting: under `CCCC(=O)NC(c1ccco1)c1cc(Cl)c2cccnc2c1O` (centres undefined) stands 11.2 µM [rising, partial curve]; under `Cn1cc(C(=O)NCCO)c(=O)c2ccccc21`, 35.5 µM [falling, partial curve]. Regarding `O=C(CCN1CCN(C/C=C/c2ccccc2)CC1)Nc1ccc(Cl)cc1`, the AC50 was 17.8 µM [rising, single point] under setting [2] and 17.8 µM [rising, single point] under setting [1]. Consider `O=C(CSCC(=O)N1CCCCC1)Nc1nc(-c2ccccc2)c(-c2ccccc2)s1`, for which the AC50 was 10 µM [rising, partial curve] under setting [2] and 14.1 µM [rising, partial curve] under setting [1]. Consider `COc1cccc(C(=O)Nc2ccc(-c3nc4ccccc4s3)cc2Cl)c1`, for which the AC50 under setting [1] was 0.0282 µM [falling, full curve, poor fit]. Turning to `Cn1cc([N+](=O)[O-])c(C(=O)Nc2ccn(C34CC5CC(CC(C5)C3)C4)n2)n1`, under setting [2], the concentration at half-maximal activity (AC50) was 35.5 µM [falling, single point]. Regarding `Cc1c(N/C(=N/S(=O)(=O)c2ccc(Cl)cc2)c2ccccc2)c(=O)n(-c2ccccc2)n1C`, the AC50 under setting [2] was 1.58 µM [rising, partial curve, poor fit]. On to `COc1ccc(CCNC(=O)CSc2nc(N)c(C#N)c(-c3cccs3)c2C#N)cc1OC`, for which the AC50 was 14.1 µM [rising, single point] under setting [2] and 15.8 µM [rising, single point] under setting [1].

Regarding `CN(C)C=NCCn1c(N2CCOCC2)nc2c1c(=O)n(C)c(=O)n2C`, the half-maximal activity concentration (AC50) under setting [2] is 0.794 µM [falling, partial curve] and the AC50 under setting [1] was 0.794 µM [falling, partial curve].

`COCCNC(=O)c1ccc(-n2c(-c3ccccc3)cc3c2CCCCC3)cc1`: the concentration at half-maximal activity (AC50) under setting [1] was 14.1 µM [rising, partial curve, poor fit].

In the case of `N#CC(C#N)=C(Nc1ccc(F)cc1)SCc1cccc(F)c1`, the AC50 by setting is: under setting [2], 2.51 µM [rising, full curve, poor fit]; under setting [1], 3.55 µM [rising, full curve]. As to `CCCCS(=O)(=O)N1C2=NC(C(=O)OC)=C(C(=O)OC)[C@@H]3N(C)c4ccc(OC)cc4[C@]23C[C@H]1C(=O)OC`, the concentration at half-maximal activity (AC50) under setting [1] was 0.398 µM [falling, partial curve]. In the case of `O=C1CC(C(=O)Nc2cccc(Cl)c2)n2ncnc2N1` (centres undefined), the AC50 under setting [1] was 0.02 µM [falling, full curve, poor fit]. As to `N#Cc1ccc(N=c2ssnc2Cl)cc1`, the AC50 under setting [2] was 12.6 µM [rising, single point].

For `CCOC(=O)c1cc(-c2ccc3c(c2)OCCO3)n[nH]1`, the AC50 under setting [2] is 5.62 µM [rising, partial curve, poor fit]. `CCn1c(=O)n(CC)c2cc(S(=O)(=O)N3CCC(c4ccccc4)CC3)ccc21`: the AC50 is, setting by setting: under setting [2], 20 µM [rising, single point]; under setting [1], 17.8 µM [rising, single point]. Regarding `N#CC1=C2SCC(O)(c3ccccc3)N2C(=O)CC1c1ccccc1` (centres undefined), the AC50 under setting [1] was 12.6 µM [rising, single point]. The same measure, in the same setting: under `CC(=O)Nc1ccc2nc(C)n(Cc3ccc(Cl)cc3)c(=O)c2c1` stands 22.4 µM [rising, single point]; under `CCOC(=O)CSC1=C(C#N)C(c2sccc2C)CC(=O)N1` (centres undefined), 5.62 µM [falling, full curve]. For `COc1ccccc1OCCNc1cc(N2CCOCC2)ccc1[N+](=O)[O-]`, the half-maximal activity concentration (AC50) under setting [1] is 3.16 µM [rising, partial curve]. Still for that read-out and setting: under `CCCCNC(=S)Nc1cccc2cnccc12` stands 35.5 µM [rising, single point]. Regarding `CN1C(=O)c2ccccc2Sc2ccc(NC(=O)COc3ccccc3)cc21`, the AC50 is 0.891 µM [rising, full curve, poor fit] under setting [2] and 2.82 µM [rising, full curve] under setting [1]. As to `COc1ccc(/C=N/NC(=O)c2cccc([N+](=O)[O-])c2)cc1OC`, the AC50 under setting [2] was 1.26 µM [rising, partial curve, poor fit]. `CCOc1ccc(-c2nc(N)ncc2Oc2ccccc2Br)c(O)c1`: the half-maximal activity concentration (AC50) under setting [2] is 35.5 µM [falling, single point] and the AC50 under setting [1] is 35.5 µM [falling, single point]. For `C=CCn1cc(/C=N/Nc2nc3ccccc3[nH]2)c2ccccc21`, the AC50 reads like this: under setting [2], 12.6 µM [rising, single point]; under setting [1], 14.1 µM [rising, partial curve]. On to `Cc1ccc(-c2nc(CSCC(=O)NCCN3CCN(Cc4ccccc4)CC3)c(C)o2)cc1`, for which the AC50 under setting [2] is 7.94 µM [rising, partial curve, poor fit] and the AC50 under setting [1] was 12.6 µM [rising, partial curve].

For the compound `O=c1oc(-c2ccccc2NS(=O)(=O)c2ccc3ccccc3c2)nc2ccccc12`, the half-maximal activity concentration (AC50) under setting [1] was 31.6 µM [rising, single point]. On the same count and under the same terms, in the case of `Cc1cc(N/N=C\c2ccccc2)nc(-c2ccccc2O)n1` it was 0.447 µM [rising, partial curve, poor fit]. On to `COC(=O)[C@@]1(Cc2ccccc2)[C@H]2c3cc(C(=O)N4CCCC4)n(Cc4ccsc4Br)c3C[C@H]2CN1C(=O)c1ccccc1`, for which the AC50 was 1 µM [rising, partial curve, poor fit] under setting [2] and 15.8 µM [rising, partial curve] under setting [1].

Consider `COc1ccc(C2=NN(C(=O)c3cccs3)C(O)(C(F)(F)F)C2)cc1` (centres undefined), for which, under setting [1], the AC50 was 35.5 µM [falling, single point]. For `CC[C@H](Cc1c(I)cc(I)c(N)c1I)C(=O)O`, the half-maximal activity concentration (AC50) by setting is: under setting [2], 0.316 µM [falling, full curve, poor fit]; under setting [1], 0.316 µM [falling, full curve, poor fit]. `COc1ccc(CNC(=O)C(c2ccco2)N(Cc2cccs2)C(=O)Cc2cccs2)cc1` (centres undefined): the AC50 was 5.62 µM [rising, full curve, poor fit] under setting [2] and 14.1 µM [rising, single point] under setting [1].

For `COc1cc(OC)c(C(=O)Nc2ccccc2-c2ccccc2)cc1OC`, the AC50 under setting [1] was 35.5 µM [rising, single point].

On to `CN1C(C(=O)Nc2ccccn2)=C(O)c2sccc2S1(=O)=O`, for which the AC50 is, setting by setting: under setting [2], 0.000891 µM [falling, full curve, poor fit]; under setting [1], 0.000891 µM [falling, full curve, poor fit].

Take `O=C(N/N=C/c1ccc(N2CCOCC2)s1)c1ccccc1Br`: the AC50 under setting [1] is 28.2 µM [falling, partial curve]. Take `CCOC(=O)c1cc(-c2ccccc2)sc1NC(=O)C(C)Sc1nnc(C)s1` (centres undefined): the AC50 under setting [2] is 20 µM [rising, single point].

Consider `CC1(C)C(=O)OC(c2cc(Br)ccc2O)C(C)(C)C1=O` (centres undefined), for which, under setting [1], the AC50 is 12.6 µM [rising, single point]. Still for that read-out and setting: under `O=C(N/N=C/c1ccc(O)cc1O)/C(=C/c1ccccc1)CCO` stands 10 µM [rising, partial curve].

Consider `COc1cc(OC)c2c(OC)c(-c3ccc4c(c3)OCO4)c(=O)oc2c1`, for which the concentration at half-maximal activity (AC50) was 14.1 µM [falling, single point] under setting [2] and 12.6 µM [falling, single point] under setting [1]. In the case of `CSc1ccc(NC(=O)N2CCN(c3nc4ccccc4s3)CC2)cc1`, the AC50 under setting [1] is 5.01 µM [rising, full curve]. In the case of `CSc1cccc(NC(=O)C2CCN(c3ncnc4c3nc3n4CCCCC3)CC2)c1`, the AC50 by setting is: under setting [2], 8.91 µM [falling, partial curve]; under setting [1], 8.91 µM [falling, partial curve, poor fit]. With `CCc1ccc2oc(=O)cc(CN3CCC(C)CC3)c2c1`, the AC50 under setting [2] was 0.2 µM [falling, partial curve, poor fit] and the half-maximal activity concentration (AC50) under setting [1] was 0.0251 µM [falling, full curve]. In the case of `O=C(CCC(=O)N1CC2CCCN2c2ccccc21)NCc1ccccc1` (centres undefined), the AC50 is 0.0794 µM [falling, full curve] under setting [2] and 0.0891 µM [falling, full curve] under setting [1]. With `N#C/C(=C\c1ccc(C(=O)O)cc1)S(=O)(=O)c1cc(Br)ccc1Br`, the half-maximal activity concentration (AC50) under setting [1] is 3.98 µM [falling, single point]. Same read-out and setting: in the case of `COc1ccc(CNC(=O)c2ccc3c(c2)N(C)C(=O)C2CCCCN32)cc1OC` (centres undefined) it was 14.1 µM [rising, single point].
